PubChem BioAssay AID686937, Drosophila RNAi Screening Center, 2013
The screen tested about 23,000 reagents; below is an unselected part of those that have a named target and a result. 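Reduced-secretion tags in replicate 1 do not always agree with the z-scores; no criterion for assigning the tags was given.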 Names joined by + are all predicted targets of the reagent. Further read-outs or replicates are left out here. Not given: the amount of reagent.

- Assay: 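Genes whose loss weakens secretory pathway function in fly cells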 (primary screen)
- Cells: Drosophila S2 cells expressing secreted horseradish peroxidase
- Knock-down reagent: long dsRNA against Drosophila genes
- Timing: about 5.5 days (5 days dsRNA, then 12 h reporter induction)
- Treatment: reporter expression induced after 5 days of dsRNA, read 12 h later; inducer not stated
- Measured: 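Chemiluminescent measurement of peroxidase in the medium 12 h after reporter induction, following 5 days of dsRNA, given as a z-score per plate; higher means more secretion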
- Reading the numbers: z-score: higher = more reporter secreted into medium

target gene,amplicon,"z-score, replicate 1","z-score, replicate 2"
CG8312,DRSC16406,0.23,0.36
CG13075,DRSC09958,0.34,0.41
CG3407,DRSC00603,0.16,0.25
Dhc62B,DRSC08655,0.22,0.27
Gr85a,DRSC12760,0.14,-0.02
kune,DRSC04860,-0.01,0.18
CG13712,DRSC08321,0.6,0.3
Cdk5alpha,DRSC03290,-0.54,-0.34
trp,DRSC17088,-0.15,0.07
CG16799,DRSC06626,0.39,0.48
CG16799,DRSC21553,-0.47,-0.57
CG9784,DRSC20210,0.23,0.21
CG8547,DRSC07211,0.4,0.46
sunn,DRSC21659,0.6,0.25
png,DRSC18582,0.22,0.3
Gr36a,DRSC22663,-0.87,0.26
nxf2,DRSC10403,0.49,0.57
CG9777,DRSC20208,0.34,0.52
opa,DRSC12384,-0.2,0.25
opa,DRSC22563,0.11,0.22
Mal-A3,DRSC07462,0.04,-0.02
CG6409,DRSC10630,-0.28,0.37
CG6409,DRSC22330,1.24,0.51
CG14453,DRSC11710,0.22,0.36
loj,DRSC09791,0.49,0.42
Cyp4s3,DRSC20241,0.43,0.5
Cyp4s3,DRSC22340,-0.3,-0.68
CG31909,DRSC22180,0.16,0.78
Cdk2,DRSC16921,-0.41,-0.63
Nelf-E,DRSC10567,0.63,0.49
CG7369,DRSC11822,-0.44,0.04
wdb,DRSC14163,0.06,0.05
qkr58E-2,DRSC04710,0.49,0.3
Kdsr,DRSC14245,0.69,0.42
Ssadh,DRSC15621,0.26,0.14

Not a retest: an excerpt of the list.
target gene,amplicon,"z-score, replicate 1","z-score, replicate 2"
CG6409,DRSC22330,1.24,0.51
CG14453,DRSC11710,0.22,0.36
loj,DRSC09791,0.49,0.42
Cyp4s3,DRSC20241,0.43,0.5
Cyp4s3,DRSC22340,-0.3,-0.68
CG31909,DRSC22180,0.16,0.78
Cdk2,DRSC16921,-0.41,-0.63
Nelf-E,DRSC10567,0.63,0.49

Continued:
target gene,amplicon,"z-score, replicate 1","z-score, replicate 2"
Act79B,DRSC11604,-0.33,-0.41
rump,DRSC16480,-0.03,-0.16
ida,DRSC08163,-0.78,-0.13
TM9SF2,DRSC03197,0.3,-0.02
NO66,DRSC18252,0.19,0.27
CG4629,DRSC00659,0.14,0.05
spo,DRSC11127,0.13,-0.13
CG30001,DRSC05191,0.16,
CG15803,DRSC15121,0.19,0.47
MED22,DRSC18175,-3.21,-3.06
CG33159,DRSC08199,0.73,0.63
Idh3a,DRSC19446,0.22,0.1
Mef2,DRSC07468,0.39,0.37
CG18765,DRSC15392,0.14,0.31
CG17744,DRSC10286,0.33,0.26
Acp33A + CG15841 (retired record),DRSC01859,0.24,0.05
CG31128,DRSC13675,0.27,0.28
CG32756,DRSC22505,-0.15,0.33
SA1,DRSC03424,0.4,0.43
CG18324,DRSC06721,0.29,0.25
IFT43,DRSC02892,0.34,0.44
lambdaTry,DRSC06137,0.46,0.31
CG10405,DRSC14238,-0.57,0.15
CG12546,DRSC11676,0.21,0.18
CG6118,DRSC15968,-1.76,-0.96
Klp67A + CG34456,DRSC10420,0.25,0.48
CG33098,DRSC22903,-0.14,0.19
CG32163,DRSC09442,0.23,0.29
CG32163,DRSC21888,0.39,0.55
Culd,DRSC10262,0.5,0.44
Mkrn1,DRSC11870,0.02,0.37
CG9890,DRSC04590,0.09,0.1
CR10102,DRSC05963,0.04,-0.01
GABA-B-R3,DRSC00561,0.29,0.28
Cep97,DRSC00637,0.34,0.44
CG12713,DRSC09900,0.15,0.23
lncRNA:CR32553,DRSC19229,0.11,0.51
Acer,DRSC01852,-0.17,0.32
Arp53D,DRSC05923,0.45,0.54
sip1,DRSC03609,-1.1,-1.31
sip1,DRSC22648,-0.77,0.24
fzo,DRSC16954,0.33,0.3
Ir60e,DRSC04227,0.06,0.29
Or49a,DRSC07493,0.31,0.2
CG17712,DRSC00266,0.25,0.23
CG10307,DRSC04057,0.25,0.45
Muc68E,DRSC09146,0.48,-0.81
